## Results of single-concentration screens

Sequences of proteins named here, by UniProt entry; tags and fusion partners are left off. Residues count along the entry.
UniProt Q4DA54, 1-478: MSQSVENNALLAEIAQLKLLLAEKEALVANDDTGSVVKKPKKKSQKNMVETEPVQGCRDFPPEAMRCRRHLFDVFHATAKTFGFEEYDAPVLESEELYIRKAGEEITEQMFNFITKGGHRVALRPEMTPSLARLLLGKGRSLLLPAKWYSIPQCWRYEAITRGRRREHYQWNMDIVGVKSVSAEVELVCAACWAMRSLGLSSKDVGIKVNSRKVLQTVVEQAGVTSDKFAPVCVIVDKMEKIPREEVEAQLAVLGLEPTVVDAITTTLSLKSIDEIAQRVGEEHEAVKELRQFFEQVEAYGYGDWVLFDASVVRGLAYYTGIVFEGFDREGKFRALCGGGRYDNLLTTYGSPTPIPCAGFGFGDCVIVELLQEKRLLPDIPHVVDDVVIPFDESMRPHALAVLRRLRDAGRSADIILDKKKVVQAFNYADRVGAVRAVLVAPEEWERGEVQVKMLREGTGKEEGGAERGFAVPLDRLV
UniProt P9WNZ1, whole entry: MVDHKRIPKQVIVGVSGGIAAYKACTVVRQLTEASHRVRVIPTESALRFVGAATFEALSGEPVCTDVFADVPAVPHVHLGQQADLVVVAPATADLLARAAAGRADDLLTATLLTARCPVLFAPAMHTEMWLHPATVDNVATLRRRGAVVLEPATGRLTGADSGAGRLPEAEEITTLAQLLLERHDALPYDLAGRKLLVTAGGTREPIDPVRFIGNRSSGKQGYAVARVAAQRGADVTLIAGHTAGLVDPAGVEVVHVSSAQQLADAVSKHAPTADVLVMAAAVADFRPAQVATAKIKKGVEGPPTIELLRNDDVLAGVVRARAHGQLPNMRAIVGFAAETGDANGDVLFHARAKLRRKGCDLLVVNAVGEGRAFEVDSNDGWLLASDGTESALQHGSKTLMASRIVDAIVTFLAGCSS

From ChEMBL document CHEMBL3988442, “University of Dundee, Small-Polar-MMV Screening Library” (2021).

A: 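Assay of Toxoplasma gondii numbers, read through their beta-galactosidase reporter with a colour substrate. Concentration: 10 µM. The record gives no direction; the compounds picked for IC50 retests had high values, so higher reads as fewer parasites. Size under these conditions: about 67,000 compounds, about 260 of them at 50% or above in at least one test.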
B: 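Histidine-tRNA ligase, Trypanosoma cruzi CL Brener (UniProt Q4DA54). Enzyme assay of histidyl-tRNA synthetase; the read-out is not stated. Concentration: 30 µM. The record gives no direction; compounds that gave an IC50 in retests scored well above the rest, so higher reads as stronger inhibition. Size under these conditions: about 69,000 compounds, about 31 of them at 50% or above in at least one test.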
C: 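Coenzyme A biosynthesis protein CoaBC, Mycobacterium tuberculosis (UniProt P9WNZ1). Enzyme assay of CoaBC with a phosphate dye (Biomol Green) read at 650 nm. Compounds at 30 µM. Direction is inferred from only a few compounds that gave an IC50; most scored high, so higher reads as stronger inhibition. Most strong results did not repeat in a second test. Of about 67,000 compounds tested this way, about 40 (0.06%) reached 50% or more in at least one test.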
D: 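Cell assay of Leishmania donovani living inside macrophages; the read-out is not stated. Compounds at 30 µM. The record gives no direction; compounds that gave an IC50 in retests scored well above the rest, so higher reads as stronger inhibition. Of about 69,000 compounds tested this way, about 1,000 (1.5%) reached 50% or more in at least one test.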

Each number is a percent effect as filed. How 0% and 100% were set is not recorded. Most values in the screen are low, and negative values occur. This is an unselected part of the compounds tested. Two or more numbers in one place are separate tests of the same structure; such repeats can differ widely. A dash means the value is not listed here; it may have been measured.

Compound,A,B,C,D
CNC(=O)CN(C)C(=O)Cc1csc(C(C)C)n1,-2.681,-0.5525,5.95,-9.16
Cc1nn(C)c2c(=O)n(CC(=O)NCC3CCCO3)ccc12 (stereo not shown),-5.256,2.97,0.3632,42.05
CC(C)Cn1c(=O)n(CCCn2cccn2)c2cc(C(=O)O)cnc21,5.193,4.124,9.843,45.6
CC(C)(C)OC(=O)NC(C)(C)c1noc(CN2CCCCC2)n1,-1.542,3.734,-6.696,5.522
O=C1N(Cc2ccc(Cl)cc2)CCC12CCCNC2 (stereo not shown),-,10.68,4.762,-
c1cnc(N2CCOCC3(CCCN(CC4CC4)C3)C2)cn1 (stereo not shown),-,4.865,4.949,-
CSC1(CNC(=O)c2ccn(-c3ccccc3F)n2)CCOCC1,4.853,-0.9804,3.828,9.942
CC(C)c1nccn1C1CCCN(C(=O)c2cnn(C)c2C2CC2)C1 (stereo not shown),1.946,1.515,1.503,27.82
O=C(COCC1CC1)N1CCSCC1,-8.008,-2.469,0.7371,-12.9
[H][C@]12CC[C@]([H])(CN(Cc3[nH]cnc3C)C1)N(C(=O)CCNS(C)(=O)=O)C2,-5.699,-,-,-10.07
COc1ccc(C(C)NCc2ccsc2)cc1Cn1cccn1 (stereo not shown),2.122,3.191,-15.37,18.48
CCCN1C[C@H]2CC[C@@H]1CN(C(=O)Cn1c(C)cc(C)nc1=O)C2,-,2.564,2.733,-
c1ccc(-c2nnc(CNCC3CCCN3c3cccnn3)o2)cc1 (stereo not shown),26.12,0,-0.8485,3.551
Cc1nc(N2CCN(C)CC2)ncc1C(=O)N1CC[C@](C)(O)[C@H](C)C1,6.426,-1.657,0,3.623
CC(C)c1nc(C2CCCN(C(=O)c3ccc4[nH]nnc4c3)C2)no1 (stereo not shown),8.226,7.289,-0.5222,40.45
Cc1cc(CN2CCc3nc(C(C)C)nc(O)c3CC2)c(C)s1,-,3.846,-7.838,10.87
Nc1cc2c(nn1)CCN(C(=O)c1cccc3c1OCCO3)C2,-0.4235,3.817,5.542,17.56
COCC(=O)N1CCCC1c1nccnc1Nc1ncccn1 (stereo not shown),6.579,10.99,2.67,8.055 and 28.57
NCC(=O)N1CCCC(O)(CN2CCN(c3ccccc3)CC2)CC1 (stereo not shown),-,3.846,2.85,24.84
O=C(NCC[S+]([O-])c1ccccc1)c1ccc2[nH]c(=O)[nH]c2c1 (stereo not shown),-0.1698,8.04,-0.9709,12.52
c1cc(-c2cncc(C3CCNCC3)n2)n[nH]1,9.69,3.383,5.128,3.512
Cc1c(C2CCCN(C(=O)C3CC3)C2)n2c(nc1=O)CCC2 (stereo not shown),-,2.703,-5.556,-
O=C(c1cccnc1)N1CCN2C[C@H](Oc3cncnc3)C[C@H]2C1,-,11.44,-1.29,-
CCc1nnc(SCC(=O)N2CCc3[nH]nc(C4CCC4)c3C2)o1,10.88,2.186,3.178,-61.48
CNC(=O)c1ccc(CN(C)c2ccc(C(F)(F)F)cn2)cc1,1.212,2.174,-1.815,13.36
N#Cc1cccnc1N1CCCC(CO)(Cc2cccc(Cl)c2)C1 (stereo not shown),-24.05,4.233,3.353,14.03
O=C(Cc1cccs1)N1CCOCC1CO (stereo not shown),-14.41,3.093,3.594,9.358 and 11.17
O=C1CC(C(=O)O)C2(CCN(C(=O)NCc3ccc(Cl)cc3)CC2)N1 (stereo not shown),-3.659,6.358,14.88,1.292
Cn1cc(Br)c(=O)c(NS(=O)(=O)c2ccc3c(c2)CCC3)c1,6.772,1.026,-3.904,13.4
CCCn1ccnc1SCC(=O)NC(Cc1ccccc1)C(C)=O (stereo not shown),-14.22,5.155,13.41,10.05
Cl.FC(F)(F)c1ccc(-c2cnc(C3CCCN3)cn2)cc1 (stereo not shown),4.403,-,-,-10.12
CCn1cc(-c2nn3c(C(F)(F)F)nnc3s2)c(C)n1,10.13,0,-1.566,14.4
[H][C@]12CC[C@]([H])(CN(CC(=O)N(C)C)C1)N(Cc1ccc(Cl)cc1Cl)C2,9.126,-,-,25.73
CC(=O)N1CCCN(C(=O)NCCc2ccc(Cl)s2)CC1,5.231,1.88,-1.044,-15.04
CN(C)S(=O)(=O)N1C[C@@H]2CN(Cc3ccoc3)CCO[C@@H]2C1,-,0,9.474,-
NS(=O)(=O)c1cnn(-c2ccc(NC(=O)CC3CCCC3)cn2)c1,13.88,7.059,0.7371,9.746
N#Cc1ncn(CC(=O)Cc2c(F)cccc2Cl)n1,-6.296,2.762,19.42,9.799
Cc1ccc(S(=O)(=O)N(C)CC(N)=O)c(Cl)c1,17.36,1.02,7.394,8.182
Cc1ccnc(NCCNC(=O)Cc2c(C)[nH]c3c(C)ccc(C)c23)c1,-2.854,-1.316,-,-6.336
Cc1ccc(CN2CCCn3cnc(COCC4CC4)c3C2)o1,-,6.468,-3.871,-
Cc1occc1C(=O)N1CCC(C(O)c2ccc(Cl)cc2)CC1 (stereo not shown),-0.6882,4.762,-1.961,-20.6
Cn1cc(NS(=O)(=O)c2ccc3c(c2)CCCC3)ccc1=O,-6.541,5.848,0.5102,38.99
[H][C@@]12CS(=O)(=O)C[C@]1([H])NCCN2c1ccnc(N(C)CCCN(C)C)n1,0.4263,-,-,-9.416

Repeated from the top, 3 entries:

Compound	A	B	C	D
CNC(=O)CN(C)C(=O)Cc1csc(C(C)C)n1	-2.681	-0.5525	5.95	-9.16
Cc1nn(C)c2c(=O)n(CC(=O)NCC3CCCO3)ccc12 (stereo not shown)	-5.256	2.97	0.3632	42.05
CC(C)Cn1c(=O)n(CCCn2cccn2)c2cc(C(=O)O)cnc21	5.193	4.124	9.843	45.6